Test results reported in PMC4869123 (Scientific Reports, 2016).
End groups of sequences in plain letters are not given here. Strings that start with PEPTIDE1 are HELM notation: dots part the residues, brackets hold end groups and non-standard residues.

assay: general procedure: Fmoc solid-phase peptide synthesis; Rink resin; conditions: conjugation step, UV254

Final HPLC purity, 95%:
ITVTIPK(PEG21)DLWDWINK(Me)2, PEPTIDE1{[ac].I.T.V.T.I.P.A.D.L.W.D.W.I.K.[KMe2].[am]}|PEPTIDE2{[PEG21NHEt]}$PEPTIDE1,PEPTIDE2,15:R3-1:R2$$$V2.0, ITVK(PEG5)IPADLWDWINK(Me)2, PEPTIDE1{[ac].I.T.V.T.I.P.A.D.L.W.D.W.I.K.[KMe2].[am]}|PEPTIDE2{[ac].I.T.V.T.I.P.A.D.L.W.D.W.I.K.[KMe2].[am]}|CHEM1{[PEG21]}$PEPTIDE1,CHEM1,15:R3-1:R1|PEPTIDE2,CHEM1,15:R3-1:R2$$$V2.0, ITVK(PEG21)IPADLWDWINK(Me)2, ITVTIPK(PEG5)DLWDWINK(Me)2, PEPTIDE1{I.T.V.T.I.P.A.D.L.W.D.W.I.N.[KMe2].[am]}|PEPTIDE2{I.T.V.T.I.P.A.D.L.W.D.W.I.N.[KMe2].[am]}|CHEM1{[PEG21]}$PEPTIDE1,CHEM1,1:R1-1:R1|PEPTIDE2,CHEM1,1:R1-1:R2$$$V2.0

same assay, conditions: conjugation step, on PEG21 bispentafluoroester 50

Conjugation yield, 74%:
PEPTIDE1{[ac].I.T.V.T.I.P.A.D.L.W.D.W.I.K.[KMe2].[am]}|PEPTIDE2{[ac].I.T.V.T.I.P.A.D.L.W.D.W.I.K.[KMe2].[am]}|CHEM1{[PEG21]}$PEPTIDE1,CHEM1,15:R3-1:R1|PEPTIDE2,CHEM1,15:R3-1:R2$$$V2.0

same assay, conditions: conjugation step, on peptide 49

Conjugation yield, 28%:
PEPTIDE1{[ac].I.T.V.T.I.P.A.D.L.W.D.W.I.K.[KMe2].[am]}|PEPTIDE2{[PEG21NHEt]}$PEPTIDE1,PEPTIDE2,15:R3-1:R2$$$V2.0

same assay, conditions: whole synthesis, UV254

Final HPLC purity, 95%:
PEPTIDE1{[ac].I.V.V.T.M.P.A.D.L.W.A.W.I.R.A.[am]}$$$$V2.0, PEPTIDE1{[ac].I.R.V.T.M.P.A.D.L.W.D.W.I.R.A.[am]}$$$$V2.0, PEPTIDE1{[ac].A.V.V.T.M.P.A.D.L.W.D.W.I.R.A.[am]}$$$$V2.0, IVVTVPADLWDWIRA, PEPTIDE1{[ac].T.I.P.A.D.L.W.D.W.I.N.K.[am]}$$$$V2.0, PEPTIDE1{[ac].I.H.V.T.I.P.A.D.L.W.D.W.I.[am]}$$$$V2.0, IVVTMPADLWDWIRA (N-acetyl), PEPTIDE1{[ac].I.V.V.T.M.P.A.A.L.W.D.W.I.R.A.[am]}$$$$V2.0, PEPTIDE1{[ac].I.V.V.T.M.P.A.D.L.W.D.W.A.R.A.[am]}$$$$V2.0, PEPTIDE1{[ac].I.V.V.T.M.P.A.D.L.W.D.W.I.R.K.[am]}$$$$V2.0, PEPTIDE1{[ac].I.V.V.T.M.P.A.D.L.W.D.W.I.R.A.[am]}$$$$V2.0, PEPTIDE1{[ac].I.H.V.T.M.P.A.D.L.W.D.W.I.R.A.[am]}$$$$V2.0, PEPTIDE1{[ac].I.V.V.T.M.P.A.D.L.W.D.W.I.A.A.[am]}$$$$V2.0, PEPTIDE1{[ac].I.Q.V.T.M.P.A.D.L.W.D.W.I.R.A.[am]}$$$$V2.0, PEPTIDE1{[ac].I.W.V.T.M.P.A.D.L.W.D.W.I.R.A.[am]}$$$$V2.0, PEPTIDE1{[ac].I.V.V.T.M.P.A.D.L.W.D.A.I.R.A.[am]}$$$$V2.0, PEPTIDE1{[ac].I.V.V.T.I.P.A.D.L.W.D.W.I.R.A.[am]}$$$$V2.0, PEPTIDE1{[ac].I.V.V.T.M.P.A.D.L.W.D.W.I.N.A.[am]}$$$$V2.0, PEPTIDE1{[ac].I.V.V.T.M.P.A.D.L.W.D.W.I.M.A.[am]}$$$$V2.0, PEPTIDE1{[ac].I.T.V.T.I.P.A.D.L.W.D.W.I.N.[KMe2].[am]}$$$$V2.0, PEPTIDE1{[ac].I.V.V.T.M.P.A.D.L.W.D.W.I.K.A.[am]}$$$$V2.0, PEPTIDE1{[ac].H.V.T.I.P.A.D.L.W.D.W.I.N.K.[am]}$$$$V2.0, Ac-ITVTIPADLWDWIKK(Me) 2-NH 2, PEPTIDE1{[ac].I.T.V.T.M.P.A.D.L.W.D.W.I.R.A.[am]}$$$$V2.0, PEPTIDE1{[ac].I.H.V.T.I.P.A.D.L.W.D.W.I.N.[am]}$$$$V2.0, PEPTIDE1{[ac].I.Y.V.T.M.P.A.D.L.W.D.W.I.R.A.[am]}$$$$V2.0, PEPTIDE1{[ac].I.H.V.T.I.P.A.D.L.W.D.W.[am]}$$$$V2.0, PEPTIDE1{[ac].V.T.I.P.A.D.L.W.D.W.I.N.K.[am]}$$$$V2.0, PEPTIDE1{[ac].I.V.V.A.M.P.A.D.L.W.D.W.I.R.A.[am]}$$$$V2.0, PEPTIDE1{[ac].I.V.V.T.M.P.A.D.L.A.D.W.I.R.A.[am]}$$$$V2.0, PEPTIDE1{[ac].I.V.V.T.A.P.A.D.L.W.D.W.I.R.A.[am]}$$$$V2.0, PEPTIDE1{[ac].I.V.V.T.M.P.A.D.A.W.D.W.I.R.A.[am]}$$$$V2.0

Final HPLC purity, 93%:
PEPTIDE1{[ac].I.V.A.T.M.P.A.D.L.W.D.W.I.R.A.[am]}$$$$V2.0, PEPTIDE1{[ac].I.V.V.T.M.A.A.D.L.W.D.W.I.R.A.[am]}$$$$V2.0, PEPTIDE1{[ac].I.A.V.T.M.P.A.D.L.W.D.W.I.R.A.[am]}$$$$V2.0
